In PubChem BioAssay AID1347426 (Functional Genomics Laboratory (NCATS/FGL), 2020):
In all, about 31,000 sequences went through this assay and about 1,400 (4.5%) were called active.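 Rule for the calls: active = median seed-adjusted z-score above 1 or below -1; inactive = the rest.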 This is one part of the list.

Test: Novel Modifiers of Survival Motor Neuron (SMN) Protein: Gene Identification via Genome-wide siRNA Screen;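 note: luminescence tracks full-length SMN protein made from the SMN2 reporter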
Settings: HEK293T SMN2-luciferase reporter, siRNA knockdown, 72 h; actives lie on both sides
How it was run: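 Genome-wide siRNA screen (10418 genes, 3 siRNAs each, 1 pmol per well) by reverse transfection in HEK293T cells stably carrying an SMN2-luciferase reporter; luminescence after 72 hours, normalized to negative-control siRNA, log10-transformed, MAD-scored.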

Sequence	median seed-adjusted z-score
CAGAACCUGUUGUAGAAAATT against GSPT2	inactive: 0.846
GGGCUGGACCAACUCAACATT against B4GALNT1	inactive: 0.0265
GAAUGCCUGCGGAACAAGATT against NLGN4X	inactive: -0.1
CAGCUCAUCGAAGACUAUATT against GPN2	inactive: 0
GGAGCACCGUUAAGGACAATT against APOC3	inactive: 0.185
CCAGGUUGGUCUUCACAGATT against ONECUT1	inactive: -0.367
GAAGUACCGGAGGAAUUUATT against ACSM1	inactive: 0.658
GGUCUCUCAGUGUCGAUUATT against ABCB11	inactive: 0.14
GCACCAUAGACUACCGAAATT against RBM15	inactive: -0.409
GGAUUACUCUUUUGGUGCATT against IRF5	inactive: -0.146
CUCUAGAAUUUGGAUAAUATT against BATF3	inactive: 0.698
CAGCAAACAUGUUCAAAAUTT against NAPA	inactive: -0.563
CCCUGGCAGCUAGUAGGUUTT against BATF3	inactive: 0.698
GGCCUCCAUUUGUACCGAATT against SOD3	inactive: -0.0691
GAAAAGUUAUUACCAUGUATT against MARCKS	inactive: 0.379
CGCUGGACGUGUCAGACAATT against MATN1	inactive: -0.271
UGCCCUUGUUUGUCCAACATT against USP18	inactive: -0.326
GAACGGGACACUUUGCUAATT against INDO	inactive: 0.0511
GGAGACAAGCACAAGCUGATT against S100B	inactive: 0.862
GCGUAUCCGAGAACCACAATT against CDH15	inactive: 0
CUGAGAAGCUUAUCCGAGATT against 4-Sep	inactive: -0.0124
CCACCUAAUGAGUCCAAUUTT against TTLL7	inactive: 0.00109
CGACUCCGAGGAAAGCAAATT against HMX3	inactive: 0.238

Sequence	median seed-adjusted z-score
CCUGGUUGCUAACGACAAATT against PASK	inactive: 0
GCACCUUCUCAAGCCGAAATT against RPA2	inactive: -0.0957
GGAGAUCUCAUUCUACAGATT against TJP3	inactive: -0.183
AGAUCUCCGCCUCGAGAAATT against TNNI3	inactive: 0.516
CAUCUACUGUCAUUAACCATT against ITIH5	inactive: -0.289
CUAUAAUCCUACUAGUAAATT against MAN2A2	inactive: -0.0938
CCAGCACAACUCUGAGAUATT against CYP2E1	inactive: 0.81
GAUUCUUGGUAUCCGAUUUTT against ZFP161	inactive: 0.154
CCGGUGUUUCGGUACCAAATT against LHX1	inactive: 0
GGAUCGGUAUAGACGGAGATT against RBM23	inactive: 0.14
UGAGAGAUCCUUUCCUGAATT against FUT1	inactive: 0.000845
CAGAAGGAAUUAGAUGGAATT against COX8C	inactive: -0.0513
AGUCCAAGGUGAUUACGCUTT against CPSF1	active: 3.29
CAAACGACCUUUGCCCAAATT against MED17	active: -2.06
AUAUGUAAGAUACAAAGAATT against HPDL	inactive: 0.483
UCCUCAGAUUCGAAGCUGATT against SEMA4B	inactive: 0.185
GGAUGAAAUAGAUAGCAUUTT against SCO1	inactive: -0.251
GCGAGUUUCAGAAUUUACATT against SNX25	inactive: -0.26
GGAUGCAGGUAUUUGGAAATT against CACNA1E	inactive: 0.285
CCUUCAAUGUGAUCCGCCUTT against HSD17B10	inactive: -0.355
GAAAAUCCGUUCUAAAGUATT against ITGB3	inactive: 0.456
GCAAAUAUAUCGAGAACCATT against ENPP7	inactive: -0.478
CCAUCAGACAAGUCCCUGUTT against MAP1S	inactive: 0.0941

Laid out differently: entries from further up
CAUCUACUGUCAUUAACCATT against ITIH5
  median seed-adjusted z-score: inactive: -0.289
GAAAAUCCGUUCUAAAGUATT against ITGB3
  median seed-adjusted z-score: inactive: 0.456

(continued)

Sequence	median seed-adjusted z-score
GGUCCAAUUUGUAAUUGAUTT against GRM8	inactive: 0.129
GACGUGUGCUAACAACAGATT against NID1	inactive: 0.761
CCUACGAAAUGUGCCUCAATT against FBXO6	inactive: 0.0361
CGAGGAUUCCUAUUUAGCUTT against GCNT1	inactive: 0.463
CCGCGAAGAUGUUAGCAUUTT against PRSS12	inactive: 0.119
GGAAUGUAAAUGCCUCUUUTT against EIF4E3	inactive: 0
GGACUUGCUCGGCUCUAUATT against CRKRS	active: -1.16
UCAUCCUCAUCAACCAGUATT against ATP6V1F	inactive: -0.428
GAAAAAUACUGGUUGUACATT against NUDT6	inactive: 0.281
GAAUUAAUGAUACCAGCAATT against GPR111	inactive: 0
GCAAUUUCCAGGUAUUGAATT against MCTS1	inactive: 0.116
GGCUUGAUGGUAAUCAGUATT against SIRT1	inactive: 0
GGAUGCUGCUGAGAACUAUTT against PIK3R3	active: -1.88
ACCCUACCAGUGUAUCAUATT against ZNF684	inactive: 0.189
GUAUUAACAUUGUUUCGAUTT against ABCB4	inactive: 0
GCAAGUUUGACAACCUCUATT against AHCY	inactive: -0.189
ACAUUUCAGUGGAUAAUUUTT against GNG4	inactive: -0.188
GUACUUUAAAGAUUGGAAUTT against LOC730394	inactive: -0.226
GGCUUUGCCUGAGCACAGATT against GJA4	inactive: -0.18
ACCUGUUCGUCUCCACCAATT against APBA3	inactive: -0.119
AGAAGAGAUAUGUUGCAUATT against TPTE	inactive: 0.213
GCAAUGGACGAAGACCUUUTT against PSMA8	inactive: 0.407
GAACCCAAGGGAUCCACUATT against FEN1	inactive: -0.316

Another view of some results above.

| Sequence | median seed-adjusted z-score |
| --- | --- |
| CCAUCAGACAAGUCCCUGUTT against MAP1S | inactive: 0.0941 |
| GGUCCAAUUUGUAAUUGAUTT against GRM8 | inactive: 0.129 |
